Data on three substances can be found in publication PMC10474270.

Sequences of proteins named here, by UniProt entry; tags and fusion partners are left off. A change or cut given only in a name is not applied to a line headed by its entry.
UniProt B2RWS6: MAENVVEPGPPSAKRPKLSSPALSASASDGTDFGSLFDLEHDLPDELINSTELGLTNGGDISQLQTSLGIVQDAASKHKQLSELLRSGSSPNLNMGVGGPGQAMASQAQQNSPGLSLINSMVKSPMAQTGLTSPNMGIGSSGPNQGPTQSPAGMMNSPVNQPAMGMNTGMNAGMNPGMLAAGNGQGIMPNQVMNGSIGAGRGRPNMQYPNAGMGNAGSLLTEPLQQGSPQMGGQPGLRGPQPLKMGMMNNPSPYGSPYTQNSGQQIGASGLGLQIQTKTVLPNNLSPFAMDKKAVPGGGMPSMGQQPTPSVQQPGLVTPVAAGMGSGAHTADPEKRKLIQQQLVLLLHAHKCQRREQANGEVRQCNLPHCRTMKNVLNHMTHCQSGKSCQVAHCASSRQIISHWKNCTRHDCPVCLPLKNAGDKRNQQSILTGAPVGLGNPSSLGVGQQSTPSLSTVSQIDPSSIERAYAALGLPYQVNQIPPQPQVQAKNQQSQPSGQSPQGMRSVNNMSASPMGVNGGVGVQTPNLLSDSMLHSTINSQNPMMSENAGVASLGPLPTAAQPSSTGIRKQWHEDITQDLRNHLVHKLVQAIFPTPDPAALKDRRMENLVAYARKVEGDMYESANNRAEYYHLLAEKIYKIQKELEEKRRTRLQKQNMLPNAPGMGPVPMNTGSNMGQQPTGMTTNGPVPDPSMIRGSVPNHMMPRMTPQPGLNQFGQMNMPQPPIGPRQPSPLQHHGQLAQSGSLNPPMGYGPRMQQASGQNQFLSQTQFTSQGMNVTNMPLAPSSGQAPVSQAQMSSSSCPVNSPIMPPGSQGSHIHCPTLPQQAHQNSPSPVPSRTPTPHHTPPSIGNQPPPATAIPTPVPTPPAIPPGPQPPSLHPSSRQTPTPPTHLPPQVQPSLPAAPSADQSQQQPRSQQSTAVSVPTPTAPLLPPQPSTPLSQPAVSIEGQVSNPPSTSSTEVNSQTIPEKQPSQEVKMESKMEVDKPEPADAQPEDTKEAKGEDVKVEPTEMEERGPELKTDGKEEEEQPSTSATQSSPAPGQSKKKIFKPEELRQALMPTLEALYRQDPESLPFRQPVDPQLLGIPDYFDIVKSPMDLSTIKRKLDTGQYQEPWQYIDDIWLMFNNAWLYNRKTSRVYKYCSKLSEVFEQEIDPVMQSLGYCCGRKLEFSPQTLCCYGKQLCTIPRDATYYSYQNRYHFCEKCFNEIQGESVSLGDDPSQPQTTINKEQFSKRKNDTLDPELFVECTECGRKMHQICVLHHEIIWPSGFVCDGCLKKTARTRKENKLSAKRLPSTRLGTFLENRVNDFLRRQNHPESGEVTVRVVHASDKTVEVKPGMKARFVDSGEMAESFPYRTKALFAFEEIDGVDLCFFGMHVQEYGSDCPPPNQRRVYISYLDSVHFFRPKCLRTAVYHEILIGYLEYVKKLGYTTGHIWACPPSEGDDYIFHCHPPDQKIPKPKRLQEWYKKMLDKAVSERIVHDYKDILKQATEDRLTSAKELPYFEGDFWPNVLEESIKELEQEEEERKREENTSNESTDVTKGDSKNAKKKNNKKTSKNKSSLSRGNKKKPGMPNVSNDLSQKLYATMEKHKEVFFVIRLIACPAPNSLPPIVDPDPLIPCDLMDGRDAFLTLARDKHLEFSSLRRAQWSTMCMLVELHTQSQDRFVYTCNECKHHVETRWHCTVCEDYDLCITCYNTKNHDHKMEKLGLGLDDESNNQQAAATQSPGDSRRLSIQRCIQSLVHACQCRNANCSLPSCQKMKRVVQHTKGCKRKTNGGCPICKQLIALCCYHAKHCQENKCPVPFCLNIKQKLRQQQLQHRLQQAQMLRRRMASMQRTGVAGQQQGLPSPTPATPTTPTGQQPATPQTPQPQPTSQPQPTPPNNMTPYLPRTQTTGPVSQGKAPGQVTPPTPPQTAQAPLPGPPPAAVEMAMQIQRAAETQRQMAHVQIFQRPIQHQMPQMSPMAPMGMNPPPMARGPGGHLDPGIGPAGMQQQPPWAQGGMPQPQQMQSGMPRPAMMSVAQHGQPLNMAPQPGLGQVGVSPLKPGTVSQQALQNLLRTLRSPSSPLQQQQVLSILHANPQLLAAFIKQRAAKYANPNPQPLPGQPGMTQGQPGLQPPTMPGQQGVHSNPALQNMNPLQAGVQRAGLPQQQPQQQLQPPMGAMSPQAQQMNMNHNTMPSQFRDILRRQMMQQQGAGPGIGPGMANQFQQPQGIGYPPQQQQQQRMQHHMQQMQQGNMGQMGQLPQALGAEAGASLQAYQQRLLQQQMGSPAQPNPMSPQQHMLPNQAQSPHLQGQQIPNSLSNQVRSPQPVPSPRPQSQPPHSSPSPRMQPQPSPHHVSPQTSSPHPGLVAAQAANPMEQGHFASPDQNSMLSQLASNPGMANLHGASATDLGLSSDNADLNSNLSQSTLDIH
UniProt P02563: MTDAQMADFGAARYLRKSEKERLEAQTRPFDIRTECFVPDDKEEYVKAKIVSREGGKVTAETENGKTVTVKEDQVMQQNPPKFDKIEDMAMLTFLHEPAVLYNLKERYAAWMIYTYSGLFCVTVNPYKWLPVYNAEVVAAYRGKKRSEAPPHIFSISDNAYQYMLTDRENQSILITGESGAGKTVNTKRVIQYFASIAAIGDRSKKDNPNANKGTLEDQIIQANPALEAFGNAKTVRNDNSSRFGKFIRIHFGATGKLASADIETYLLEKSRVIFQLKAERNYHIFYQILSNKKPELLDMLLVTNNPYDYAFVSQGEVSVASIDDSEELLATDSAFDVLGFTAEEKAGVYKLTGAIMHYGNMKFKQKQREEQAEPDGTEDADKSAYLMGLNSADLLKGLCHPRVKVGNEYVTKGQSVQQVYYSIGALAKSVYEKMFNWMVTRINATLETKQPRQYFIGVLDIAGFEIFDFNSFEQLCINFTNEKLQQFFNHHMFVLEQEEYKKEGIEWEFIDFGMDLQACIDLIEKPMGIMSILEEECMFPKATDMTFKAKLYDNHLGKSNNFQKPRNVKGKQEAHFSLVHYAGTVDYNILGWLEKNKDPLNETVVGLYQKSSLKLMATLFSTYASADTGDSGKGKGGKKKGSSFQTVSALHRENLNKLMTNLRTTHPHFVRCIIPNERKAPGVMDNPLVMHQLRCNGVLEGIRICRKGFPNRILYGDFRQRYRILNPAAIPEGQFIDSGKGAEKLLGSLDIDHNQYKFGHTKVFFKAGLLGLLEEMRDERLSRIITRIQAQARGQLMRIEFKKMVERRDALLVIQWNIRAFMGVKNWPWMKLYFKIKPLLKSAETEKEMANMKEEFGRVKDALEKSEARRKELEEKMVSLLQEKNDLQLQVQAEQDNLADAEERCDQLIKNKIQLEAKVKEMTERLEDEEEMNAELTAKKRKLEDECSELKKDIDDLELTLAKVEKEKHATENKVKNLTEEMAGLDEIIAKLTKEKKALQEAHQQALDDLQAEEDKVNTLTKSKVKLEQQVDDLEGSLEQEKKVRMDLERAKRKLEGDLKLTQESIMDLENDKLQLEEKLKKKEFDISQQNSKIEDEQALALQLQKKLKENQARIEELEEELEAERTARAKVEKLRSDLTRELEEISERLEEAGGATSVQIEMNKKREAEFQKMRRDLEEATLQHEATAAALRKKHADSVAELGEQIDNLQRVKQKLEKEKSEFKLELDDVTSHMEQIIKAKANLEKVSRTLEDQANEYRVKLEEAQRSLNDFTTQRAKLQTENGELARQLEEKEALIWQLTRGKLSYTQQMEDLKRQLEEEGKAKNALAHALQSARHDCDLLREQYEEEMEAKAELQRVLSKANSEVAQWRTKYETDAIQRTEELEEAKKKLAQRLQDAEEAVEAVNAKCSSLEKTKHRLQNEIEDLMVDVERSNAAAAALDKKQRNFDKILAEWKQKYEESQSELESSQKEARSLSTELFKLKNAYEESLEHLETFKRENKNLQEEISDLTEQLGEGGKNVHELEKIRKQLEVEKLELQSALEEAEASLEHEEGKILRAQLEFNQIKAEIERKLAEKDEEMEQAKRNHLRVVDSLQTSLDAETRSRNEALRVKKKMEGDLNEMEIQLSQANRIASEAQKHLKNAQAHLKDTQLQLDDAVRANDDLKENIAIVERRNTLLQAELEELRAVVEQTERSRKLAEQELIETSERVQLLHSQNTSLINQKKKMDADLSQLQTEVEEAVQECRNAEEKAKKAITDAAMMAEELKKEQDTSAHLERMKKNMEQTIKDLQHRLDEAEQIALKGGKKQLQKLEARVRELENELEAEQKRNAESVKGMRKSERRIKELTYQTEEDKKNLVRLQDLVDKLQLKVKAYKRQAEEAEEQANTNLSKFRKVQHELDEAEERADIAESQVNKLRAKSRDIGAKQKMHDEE
UniProt Q02566: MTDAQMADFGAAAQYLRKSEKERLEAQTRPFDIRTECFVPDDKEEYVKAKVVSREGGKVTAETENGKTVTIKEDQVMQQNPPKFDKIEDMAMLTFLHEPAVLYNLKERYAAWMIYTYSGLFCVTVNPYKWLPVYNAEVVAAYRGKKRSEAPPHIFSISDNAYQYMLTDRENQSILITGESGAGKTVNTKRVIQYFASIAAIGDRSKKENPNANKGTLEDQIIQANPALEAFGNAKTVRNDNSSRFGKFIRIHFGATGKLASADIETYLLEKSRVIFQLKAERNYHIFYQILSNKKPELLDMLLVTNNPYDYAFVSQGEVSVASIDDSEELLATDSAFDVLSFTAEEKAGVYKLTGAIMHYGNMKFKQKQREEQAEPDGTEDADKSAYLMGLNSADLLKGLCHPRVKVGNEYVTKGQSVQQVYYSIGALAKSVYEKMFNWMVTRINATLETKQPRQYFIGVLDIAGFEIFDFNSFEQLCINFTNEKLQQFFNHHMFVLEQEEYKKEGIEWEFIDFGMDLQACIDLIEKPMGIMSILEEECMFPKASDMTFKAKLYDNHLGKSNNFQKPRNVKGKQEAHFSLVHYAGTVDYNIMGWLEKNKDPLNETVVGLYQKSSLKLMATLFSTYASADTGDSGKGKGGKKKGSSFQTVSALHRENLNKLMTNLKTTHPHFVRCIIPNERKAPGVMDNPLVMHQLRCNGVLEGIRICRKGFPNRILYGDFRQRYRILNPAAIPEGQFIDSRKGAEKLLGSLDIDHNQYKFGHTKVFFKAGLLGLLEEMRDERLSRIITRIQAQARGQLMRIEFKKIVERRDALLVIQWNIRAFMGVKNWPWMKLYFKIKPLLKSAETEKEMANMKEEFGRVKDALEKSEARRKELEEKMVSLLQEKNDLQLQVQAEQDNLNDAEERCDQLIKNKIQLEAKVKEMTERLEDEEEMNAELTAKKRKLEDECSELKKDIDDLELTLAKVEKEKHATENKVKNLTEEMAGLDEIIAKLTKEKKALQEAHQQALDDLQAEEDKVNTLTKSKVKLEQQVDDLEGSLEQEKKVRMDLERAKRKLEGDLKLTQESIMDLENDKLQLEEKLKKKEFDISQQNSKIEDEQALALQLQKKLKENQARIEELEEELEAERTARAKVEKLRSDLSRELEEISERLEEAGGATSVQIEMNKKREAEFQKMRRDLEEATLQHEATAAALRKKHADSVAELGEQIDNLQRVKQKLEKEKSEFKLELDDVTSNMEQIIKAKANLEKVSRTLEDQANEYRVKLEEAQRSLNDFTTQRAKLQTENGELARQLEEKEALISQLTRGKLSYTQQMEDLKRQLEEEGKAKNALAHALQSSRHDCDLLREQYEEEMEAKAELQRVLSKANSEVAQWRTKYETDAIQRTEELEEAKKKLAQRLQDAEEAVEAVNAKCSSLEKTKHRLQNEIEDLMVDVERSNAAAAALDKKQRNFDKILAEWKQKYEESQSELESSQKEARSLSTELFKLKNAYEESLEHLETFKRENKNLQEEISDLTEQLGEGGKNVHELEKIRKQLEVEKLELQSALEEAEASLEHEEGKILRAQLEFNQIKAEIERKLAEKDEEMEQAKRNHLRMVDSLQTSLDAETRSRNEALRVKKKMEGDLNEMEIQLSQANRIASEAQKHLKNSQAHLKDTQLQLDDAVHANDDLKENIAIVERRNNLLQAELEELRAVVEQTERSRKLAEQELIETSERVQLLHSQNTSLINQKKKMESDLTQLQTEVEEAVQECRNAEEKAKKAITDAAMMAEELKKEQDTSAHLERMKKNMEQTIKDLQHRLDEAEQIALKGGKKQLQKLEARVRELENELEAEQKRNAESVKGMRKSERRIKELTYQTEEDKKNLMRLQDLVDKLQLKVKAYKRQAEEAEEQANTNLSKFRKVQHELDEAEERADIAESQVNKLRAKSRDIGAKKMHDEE

In experiment [1] the target is T1, SIRT1, endogenous in H9c2 cells (rat (endogenous in H9c2)).
T1 sequence: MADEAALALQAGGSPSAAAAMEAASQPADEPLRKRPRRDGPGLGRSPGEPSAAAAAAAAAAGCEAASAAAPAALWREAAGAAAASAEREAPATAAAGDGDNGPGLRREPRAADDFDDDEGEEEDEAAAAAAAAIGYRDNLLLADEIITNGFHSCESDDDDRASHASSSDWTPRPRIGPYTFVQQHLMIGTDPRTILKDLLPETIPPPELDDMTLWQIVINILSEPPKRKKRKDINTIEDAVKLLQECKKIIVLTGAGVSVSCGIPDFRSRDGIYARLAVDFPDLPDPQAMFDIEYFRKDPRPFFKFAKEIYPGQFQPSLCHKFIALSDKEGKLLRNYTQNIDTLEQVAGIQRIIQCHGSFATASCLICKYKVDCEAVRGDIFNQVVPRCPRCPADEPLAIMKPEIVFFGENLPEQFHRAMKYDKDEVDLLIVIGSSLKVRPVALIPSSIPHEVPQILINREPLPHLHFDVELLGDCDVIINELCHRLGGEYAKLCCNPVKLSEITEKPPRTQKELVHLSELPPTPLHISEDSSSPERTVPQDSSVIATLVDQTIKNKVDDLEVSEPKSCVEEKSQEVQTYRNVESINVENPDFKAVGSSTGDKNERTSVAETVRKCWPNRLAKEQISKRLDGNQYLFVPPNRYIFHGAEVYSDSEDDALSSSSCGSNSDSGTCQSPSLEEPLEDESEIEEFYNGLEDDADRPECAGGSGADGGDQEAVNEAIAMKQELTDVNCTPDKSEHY
The experiment in a line: co-IP; H9c2 cell lysate, anti-SIRT1 antibody or control IgG, blot for α-MHC; with or without Ang II.

Experiment [2] has as its target Titin, endogenous in mouse myocardial tissue (mouse (endogenous in myocardial tissue)) (UniProt A2ASS6). The experiment in a line: co-IP; mouse myocardial tissue lysate, anti-Titin antibody or control IgG on Protein A/G magnetic beads, blot for α-MHC; WT and α-MHC K1897R KI or LDHA-cKO mice; treatments: Ang II, p300 inhibitor or activator, SIRT1 activator or inhibitor, LDHA inhibitor, NALA, VB124.

Experiment [3] addresses p300 (E1A binding protein, 300 kDa), endogenous in mouse myocardial tissue (mouse (endogenous in myocardial tissue)) (UniProt B2RWS6). The experiment can be described thus: co-IP; mouse myocardial tissue lysate, anti-p300 antibody or control IgG, blot for α-MHC; with or without Ang II.
Experiment [4] has as its target T2, Sirtuin 1 (SIRT1), endogenous in mouse myocardial tissue (mouse (endogenous in myocardial tissue)) (UniProt Q923E4).
T2 sequence: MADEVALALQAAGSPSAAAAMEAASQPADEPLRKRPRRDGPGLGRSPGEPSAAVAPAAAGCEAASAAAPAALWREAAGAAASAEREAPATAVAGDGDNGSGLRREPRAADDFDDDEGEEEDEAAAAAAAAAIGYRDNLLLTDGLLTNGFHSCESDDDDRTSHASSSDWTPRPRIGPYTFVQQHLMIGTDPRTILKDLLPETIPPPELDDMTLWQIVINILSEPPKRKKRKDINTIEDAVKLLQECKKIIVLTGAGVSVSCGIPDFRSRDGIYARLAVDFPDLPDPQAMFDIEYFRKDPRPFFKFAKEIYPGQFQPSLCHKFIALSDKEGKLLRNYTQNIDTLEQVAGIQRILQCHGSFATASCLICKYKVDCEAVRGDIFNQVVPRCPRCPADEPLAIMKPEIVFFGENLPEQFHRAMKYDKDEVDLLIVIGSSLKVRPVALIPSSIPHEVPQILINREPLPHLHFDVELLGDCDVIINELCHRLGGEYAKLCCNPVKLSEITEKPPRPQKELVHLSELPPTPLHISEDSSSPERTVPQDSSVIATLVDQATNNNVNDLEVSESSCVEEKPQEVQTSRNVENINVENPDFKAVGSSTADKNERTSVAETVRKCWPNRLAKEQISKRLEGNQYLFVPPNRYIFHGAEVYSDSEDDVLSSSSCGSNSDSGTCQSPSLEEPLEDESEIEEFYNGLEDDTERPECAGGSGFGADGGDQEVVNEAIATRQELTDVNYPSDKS
The experiment in a line: co-IP; mouse myocardial tissue lysate, anti-SIRT1 antibody or control IgG, blot for α-MHC; with or without Ang II.

No constants are given. Whether binding was seen depends on the method and setting. In cells and extracts the contact can be indirect. Some entries that bind do so weakly or less than the wild type.

On to “α-MHC, endogenous in H9c2 cells (from UniProt P02563 1-1938)”, for which the binding entry in experiment [1] is “binds”.

Regarding “α-MHC K1897R, endogenous in myocardial tissue of α-MHC K1897R knock-in mice (from UniProt Q02566 1-1938)”, in experiment [2], the binding entry is on record as “binds”. As to “α-myosin heavy chain (α-MHC), wild type, endogenous in mouse myocardial tissue (from UniProt Q02566 1-1938)”, the binding entry in experiment [3], in experiment [4] and in experiment [2] was “binds” throughout.
